In article PMC7924263:
No constants are given. Whether binding was seen depends on the method and setting. In cells and extracts the contact can be indirect. Here binding means that the protein was enriched with, or labelled near, the bait; the list need not be complete. For some of these results: No binding means not detected with the bait. For some of these results: Where a sequence is shown, tags or fusion partners need not be part of it.

The chains behind the UniProt entries cited, without tags or fusion partners.
UniProt P0DTD2: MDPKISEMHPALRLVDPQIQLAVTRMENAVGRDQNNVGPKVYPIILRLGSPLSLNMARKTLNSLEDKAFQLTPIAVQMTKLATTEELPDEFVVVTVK

Key:
Assay in all cases: proximity labelling
[1] = target: T1, SARS-CoV-2 ORF6, HA-BASU fusion (SARS-CoV-2), P0DTC6; conditions: remark: other sources report otherwise
T1 chain: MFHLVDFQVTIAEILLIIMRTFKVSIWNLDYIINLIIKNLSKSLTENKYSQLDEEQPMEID

[2] = target: SARS-CoV-2 ORF9b, HA-BASU fusion (SARS-CoV-2), P0DTD2; conditions: remark: other sources report otherwise
[3] = target: SARS-CoV-2 ORF6, HA-BASU fusion (SARS-CoV-2) (UniProt P0DTC6)
[4] = target: SARS-CoV-2 ORF9b, HA-BASU fusion (SARS-CoV-2) (UniProt P0DTD2)

B1: Nup98, P52948 1-880 (protein)
chain: MFNKSFGTPFGGGTGGFGTTSTFGQNTGFGTTSGGAFGTSAFGSSNNTGGLFGNSQTKPGGLFGTSSFSQPATSTSTGFGFGTSTGTANTLFGTASTGTSLFSSQNNAFAQNKPTGFGNFGTSTSSGGLFGTTNTTSNPFGSTSGSLFGPSSFTAAPTGTTIKFNPPTGTDTMVKAGVSTNISTKHQCITAMKEYESKSLEELRLEDYQANRKGPQNQVGAGTTTGLFGSSPATSSATGLFSSSTTNSGFAYGQNKTAFGTSTTGFGTNPGGLFGQQNQQTTSLFSKPFGQATTTQNTGFSFGNTSTIGQPSTNTMGLFGVTQASQPGGLFGTATNTSTGTAFGTGTGLFGQTNTGFGAVGSTLFGNNKLTTFGSSTTSAPSFGTTSGGLFGNKPTLTLGTNTNTSNFGFGTNTSGNSIFGSKPAPGTLGTGLGAGFGTALGAGQASLFGNNQPKIGGPLGTGAFGAPGFNTTTATLGFGAPQAPVALTDPNASAAQQAVLQQHINSLTYSPFGDSPLFRNPMSDPKKKEERLKPTNPAAQKALTTPTHYKLTPRPATRVRPKALQTTGTAKSHLFDGLDDDEPSLANGAFMPKKSIKKLVLKNLNNSNLFSPVNRDSENLASPSEYPENGERFSFLSKPVDENHQQDGDEDSLVSHFYTNPIAKPIPQTPESAGNKHSNSNSVDDTIVALNMRAALRNGLEGSSEETSFHDESLQDDREEIENNSYHMHPAGIILTKVGYYTIPSMDDLAKITNEKGECIVSDFTIGRKGYGSIYFEGDVNLTNLNLDDIVHIRRKEVVVYLDDNQKPPVGEGLNRKAEVTLDGVWPTDKTSRCLIKSPDRLADINYEGRLEAVSRKQGAQFKEYRPETGSWVFKVSHF
- binding [1]: binds

B2: Mitochondrial Activation of Viral Signaling (MAVS), Q7Z434 1-540 (protein)
chain: MPFAEDKTYKYICRNFSNFCNVDVVEILPYLPCLTARDQDRLRATCTLSGNRDTLWHLFNTLQRRPGWVEYFIAALRGCELVDLADEVASVYQSYQPRTSDRPPDPLEPPSLPAERPGPPTPAAAHSIPYNSCREKEPSYPMPVQETQAPESPGENSEQALQTLSPRAIPRNPDGGPLESSSDLAALSPLTSSGHQEQDTELGSTHTAGATSSLTPSRGPVSPSVSFQPLARSTPRASRLPGPTGSVVSTGTSFSSSSPGLASAGAAEGKQGAESDQAEPIICSSGAEAPANSLPSKVPTTLMPVNTVALKVPANPASVSTVPSKLPTSSKPPGAVPSNALTNPAPSKLPINSTRAGMVPSKVPTSMVLTKVSASTVPTDGSSRNEETPAAPTPAGATGGSSAWLDSSSENRGLGSELSKPGVLASQVDSPFSGCFEDLAISASTSLGMGPCHGPEENEYKSEGTFGIHVAENPSIQLLEGNPGPPADPDGGPRPQADRKFQEREVPCHRPSPGALWLQVAVTGVLVVTLLVVLYRRRLH
- binding [2]: binds

B3: RaeI (protein, UniProt P78406 1-368)
chain: MSLFGTTSGFGTSGTSMFGSATTDNHNPMKDIEVTSSPDDSIGCLSFSPPTLPGNFLIAGSWANDVRCWEVQDSGQTIPKAQQMHTGPVLDVCWSDDGSKVFTASCDKTAKMWDLSSNQAIQIAQHDAPVKTIHWIKAPNYSCVMTGSWDKTLKFWDTRSSNPMMVLQLPERCYCADVIYPMAVVATAERGLIVYQLENQPSEFRRIESPLKHQHRCVAIFKDKQNKPTGFALGSIEGRVAIHYINPPNPAKDNFTFKCHRSNGTNTSAPQDIYAVNGIAFHPVHGTLATVGSDGRFSFWDKDARTKLKTSEQLDQPISACCFNHNGNIFAYASSYDWSKGHEFYNPQKKNYIFLRNAAEELKPRNKK
- binding [3]: binds
- binding [4]: no binding
